Measurements reported in patent US20240026034A1.
Results are given in words; binding and its absence hold for the method and conditions named. Some binding calls cover weakened binding; strength is not graded here.

Assays:
QSOX1 (human) [1] = molecular target: T1, QSOX1 (human) (UniProt O00391); assay: blot binding assays on QSOX1 and its mutants
T1 sequence (looked up): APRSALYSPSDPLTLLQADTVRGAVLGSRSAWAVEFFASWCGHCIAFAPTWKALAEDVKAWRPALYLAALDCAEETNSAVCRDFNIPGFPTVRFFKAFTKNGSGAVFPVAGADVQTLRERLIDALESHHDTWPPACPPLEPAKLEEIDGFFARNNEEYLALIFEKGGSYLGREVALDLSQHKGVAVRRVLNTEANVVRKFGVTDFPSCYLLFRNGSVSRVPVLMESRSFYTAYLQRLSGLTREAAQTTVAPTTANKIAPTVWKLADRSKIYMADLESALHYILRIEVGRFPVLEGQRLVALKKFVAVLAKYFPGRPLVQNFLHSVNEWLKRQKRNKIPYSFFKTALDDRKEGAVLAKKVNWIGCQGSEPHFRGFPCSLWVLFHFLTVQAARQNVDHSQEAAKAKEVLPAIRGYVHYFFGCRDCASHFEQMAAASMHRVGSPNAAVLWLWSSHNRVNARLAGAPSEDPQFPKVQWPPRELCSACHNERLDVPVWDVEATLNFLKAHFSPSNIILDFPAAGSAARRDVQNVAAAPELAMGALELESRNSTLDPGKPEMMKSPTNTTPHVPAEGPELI

QSOX1 (human) [2] = molecular target: T1, QSOX1 (human); assay: blot
QSOX1 (human) [3] = molecular target: T1, QSOX1 (human); assay: antigen capture ELISA on human plasma, biotinylated 2F1 as detector

Measured: binding

B1: 2F1 anti-QSOX1 monoclonal antibody (antibody, V domains shown)
VH: EVQLEESGPGLVAPSQSLSITCTVSGFSLTDYGVTWIRQPPGKGLEWLGVIWGDGSTYYNSALKSRLSISKDDSKSQVFLKMNSLQTDDTAMYYCAGALYDGYYGYWGQGTTLTVSS
VL: DIVLTQTHKFMSTSVGDRVSITCKASQDVSTAVAWYQQKPGQSPKLLIYSASYRYSGVPDRFTGSGSGTDFTFTISSVQAEDLAVYYCQQHYSTPLTFGAGTKLELK
binds: all assays above
